{"source": "patent US9789111B2", "about": "“Casein kinase 1δ (CK 1δ) inhibitors” (Electrophoretics Limited, priority 2010, dated 2017)", "note": "For some assays here: At least one compound was matched to its structure with a doubt left. Some results were stated once for a whole list of compounds, not compound by compound."}
{"molecular_target": "T1, CK1δ (Homo sapiens, UniProt P48730)", "T1 construct": "Recombinant human full-length construct; GST; host or cells: insect cells", "T1 sequence (P48730 1-409 isoform P48730-2)": "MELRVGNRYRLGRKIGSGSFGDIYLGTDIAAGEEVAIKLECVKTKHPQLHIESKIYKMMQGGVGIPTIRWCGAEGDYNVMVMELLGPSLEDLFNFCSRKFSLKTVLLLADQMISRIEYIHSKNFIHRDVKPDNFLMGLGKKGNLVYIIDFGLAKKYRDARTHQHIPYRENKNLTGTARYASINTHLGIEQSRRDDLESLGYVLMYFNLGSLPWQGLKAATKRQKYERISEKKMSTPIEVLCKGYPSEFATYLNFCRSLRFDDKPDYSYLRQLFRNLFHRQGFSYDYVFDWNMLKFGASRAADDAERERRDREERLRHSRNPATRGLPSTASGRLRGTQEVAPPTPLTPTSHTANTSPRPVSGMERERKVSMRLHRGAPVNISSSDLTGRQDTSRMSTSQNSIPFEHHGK", "assay": "CK1δ inhibition assay (33P-ATP, CK1tide substrate)", "assay_type": "biochemical", "settings": "not given", "experimental": "The compounds of the invention may be tested for inhibition of casein kinase 1 delta (CK1δ) in accordance with the assay protocols described in US 2010/0152157, EP 1,636,375 or Hanger et al (2007) J. Biol. Chem. 282, 23645-23654. In particular, the assay was conducted in accordance with the following protocol:\nBase Reaction buffer; 20 mM Hepes (pH 7.5), 10 mM MgCl2, 1 mM EGTA, 0.02% Brij35, 0.02 mg/ml BSA, 0.1 mM Na3VO4, 2 mM DTT, 1% DMSO\nIt should be noted that required cofactors are added individually to each kinase reaction.\n• 1. Prepare indicated substrate in freshly prepared Base Reaction Buffer as described above • 2. Deliver any required cofactors to the substrate solution • 3. Deliver indicated kinase into the substrate solution and gently mix • 4. Deliver compounds in DMSO into the kinase reaction mixture • 5. Deliver ^33P-ATP (specific activity 0.01 μCi/μl final) into the reaction mixture to initiate the reaction • 6. Incubate kinase reaction for 120 min. at room temperature • 7. Reactions are spotted onto P81 ion exchange paper (Whatman #3698-915) • 8. Wash filters extensively in 0.75% Phosphoric acid Kinase Information: • CK1δ—Genbank Accession # NP_620693 • Recombinant human full-length construct. GST-tagged, expressed in insect cells. • Final concentration in assay=4 nM • Substrate: CK1tide • Substrate sequence: [KRRRAL[pS]VASLPGL] • Final substrate concentration in assay=20 μM • It should be noted that no additional cofactors are added to the reaction mixture."}
{"smiles": "COC(=O)c1cc2c([nH]c3ccccc32)c(-c2cccc(OC)c2)n1", "note": "[Compound 288]", "inhibition in the CK1δ inhibition assay": "greater than 5%"}
{"smiles": "O=c1[nH]nc(Cc2nc3ccccc3[nH]2)c2ccccc12", "note": "[Compound 314]", "inhibition in the CK1δ inhibition assay": "greater than 5%"}
{"smiles": "Cc1sc2ncnc(SCc3nc4ccccc4[nH]3)c2c1C", "note": "[Compound 374]", "inhibition in the CK1δ inhibition assay": "greater than 5%"}
{"smiles": "Cc1ccc(NCc2cnn3cccnc23)cn1", "note": "[Compound 875]", "inhibition in the CK1δ inhibition assay": "greater than 5%"}
{"smiles": "Cc1nn(C)c(C)c1Nc1ncnc2c1oc1ccccc12", "note": "[Compound 705]", "inhibition in the CK1δ inhibition assay": "greater than 5%"}
{"smiles": "O=C1C(Oc2ccccc2)C(c2ccc3c(c2)OCO3)N1Cc1ccc(F)cc1", "note": "(centres unmarked) [Compound 969]", "inhibition in the CK1δ inhibition assay": "greater than 5%"}
{"smiles": "Cn1ncc2c(Nc3ccccc3O)ncnc21", "note": "[Compound 759]", "inhibition in the CK1δ inhibition assay": "greater than 5%"}
{"smiles": "CC(Nc1ncnc2[nH]ncc12)c1ccccn1", "note": "(centres unmarked) [Compound 626]", "inhibition in the CK1δ inhibition assay": "greater than 5%"}
{"smiles": "CCCNc1nc2ccc(C(=O)c3ccccc3)cc2n2cnnc12", "note": "[Compound 616]", "inhibition in the CK1δ inhibition assay": "greater than 5%"}
{"smiles": "Nc1nc2ccccc2n1Cc1ccccc1", "note": "[Compound 872]", "inhibition in the CK1δ inhibition assay": "greater than 5%"}
{"smiles": "Nc1nc(CSc2nc3ccccc3o2)nc(Nc2ccc(F)cc2)n1", "note": "[Compound 615]", "inhibition in the CK1δ inhibition assay": "greater than 5%"}
{"smiles": "Cn1nccc1/C=C(/C(=O)c1ccccc1)c1nc2ccccc2s1", "note": "[Compound 808]", "inhibition in the CK1δ inhibition assay": "greater than 5%"}
{"smiles": "c1ccc2c(-c3nnc4cnccn34)ccnc2c1", "note": "[Compound 784]", "inhibition in the CK1δ inhibition assay": "greater than 5%"}
{"smiles": "O=C(Cc1ccccc1-c1nn2cnnc2s1)NC1CCCCC1", "note": "[Compound 819]", "inhibition in the CK1δ inhibition assay": "greater than 5%"}
{"smiles": "NS(=O)(=O)c1cccc(NC(=O)COc2ncnc3sccc23)c1", "note": "[Compound 391]", "inhibition in the CK1δ inhibition assay": "greater than 5%"}
{"smiles": "Cn1c(=O)n(C)c2cc(C(=O)c3ccccc3)ccc21", "note": "[Compound 933]", "inhibition in the CK1δ inhibition assay": "greater than 5%"}
{"smiles": "CN(CCc1ccccn1)c1ncnc2[nH]ncc12", "note": "[Compound 30]", "inhibition in the CK1δ inhibition assay": "greater than 5%"}
{"smiles": "Cc1cc(C(=O)Nc2cccnc2)c2c(C)n[nH]c2n1", "note": "[Compound 844]", "inhibition in the CK1δ inhibition assay": "greater than 5%"}
{"smiles": "c1ccc(CNc2ncnc3[nH]cnc23)nc1", "note": "[Compound 770]", "inhibition in the CK1δ inhibition assay": "greater than 5%"}
{"smiles": "Nc1ncc(Cc2ccc3c(c2)OCO3)c(N)n1", "note": "[Compound 336]", "inhibition in the CK1δ inhibition assay": "greater than 5%"}
{"smiles": "c1cncc(CNc2ncnc3oc4c(c23)CCC4)c1", "note": "[Compound 869]", "inhibition in the CK1δ inhibition assay": "greater than 5%"}
{"smiles": "CCNC(=O)c1c(C)oc2ncnc(NCc3ccccn3)c12", "note": "[Compound 756]", "inhibition in the CK1δ inhibition assay": "greater than 5%"}
{"smiles": "c1ccc(CNc2ncnc3[nH]ncc23)nc1", "note": "[Compound 833]", "inhibition in the CK1δ inhibition assay": "greater than 5%"}
{"smiles": "Cc1sc2ncnc(NCc3ccccn3)c2c1C", "note": "[Compound 753]", "inhibition in the CK1δ inhibition assay": "greater than 5%"}
{"smiles": "Cc1nn(C)c2nc(C(C)C)cc(C(=O)Nc3nccs3)c12", "note": "[Compound 740]", "inhibition in the CK1δ inhibition assay": "greater than 5%"}
{"system": "Tau phosphorylation at key pathogenic sites in SH-SY5Y-TMHT cells", "assay": "not given", "settings": "SH-SY5Y-TMHT cells exposed to kinase inhibitors; cited from earlier work"}
{"smiles": "Oc1c2ccccc2c2c3c(cccc13)N=N2", "note": "[SP600125]", "levels of Tau phosphorylation at key pathogenic sites": "reduced"}
